Here are results for 55 compounds from PubChem BioAssay AID2685 (National Center for Advancing Translational Sciences (NCATS), 2010).

The nature of the experiment: qHTS Assay for Lipid Storage Modulators in Drosophila S3 Cells.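 For cell number change: cells counted by Cell Tracker Red CMTPX staining in the red channel.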 The settings on record: BODIPY lipid droplet fluorescence, 18-24 h; for cell number change: measured here: cell count max response, cells fed with added oleic acid. In a few lines:
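Drosophila S3 cells loaded with oleic acid (400 uM, as added) and compounds at several concentrations; lipid droplets imaged by 488-nm laser-scanning cytometry, 500–530 nm intensity and object ratio to cell channel. Percent activity normalized to 20 uM Triacsin C.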

Setting [1] is: measured here: lipid fluorescence (Fed channel) AC50, cells fed with added oleic acid.
The mark [2] stands for this setting: measured here: cell number channel AC50, cells fed with added oleic acid.

SMILES strings stand for the structures. The list shows a part of the results. Further columns of the screen follow, without active or inactive calls. The list favours compounds with an active or inconclusive main result. The note in brackets gives the kind of curve behind each potency; many fits are weak.

As for `Cc1cccn2c(=O)c(C=O)c(N3CCSCC3)nc12`, the cell number change is -0.961%. Besides, the AC50 under setting [1] is 0.731 µM [falling, single point].
For `CS(=O)(=O)c1ccc(NCCN2CCOCC2)c([N+](=O)[O-])c1`, the cell number change is -11.1%. For the same compound, the AC50 under setting [2] is 5.17 µM [rising, single point]. Moreover, the AC50 under setting [1] was 29.1 µM [rising, single point].
For `O=C(Cn1nc(C(F)F)cc1C(F)F)NNC(=S)Nc1ccc([N+](=O)[O-])cc1`, the cell number change came to 0.839%. In addition, under setting [1], the AC50 is 1.84 µM [falling, partial curve].
Take `CC1(NC(=O)CSc2nnc(-c3ccco3)n2Cc2ccccc2)CCS(=O)(=O)C1` (stereo unspecified): the cell number change was 5.84%. The AC50 under setting [1] was 4.61 µM [falling, full curve, poor fit].
For the compound `CCCCN(C(=O)CSc1nnc(Nc2ccc(C)c(C)c2)s1)c1c(N)n(Cc2ccccc2)c(=O)[nH]c1=O`, the AC50 under setting [1] was 4.61 µM [falling, partial curve, poor fit].
Same read-out and setting: under `Cc1cccc(C(=O)Nc2nnc(S(=O)(=O)N(C)Cc3ccco3)s2)c1` stands 2.59 µM [falling, single point].
On to `CCOCCCNC(=O)Cc1cc(=O)[nH]c(=O)[nH]1`, for which the cell number change was -61.6%. Further, under setting [2], the AC50 is 23.1 µM [falling, single point].
As for `CCOC(=O)c1cn(-c2ccccc2CO)c2c(F)c(F)c(F)cc2c1=O`, the cell number change was 9.63%. Further, the AC50 under setting [1] was 1.84 µM [rising, partial curve].
Turning to `O=S(=O)(Nc1cccc(-n2cnnn2)c1)c1cc(Cl)ccc1Cl`, the cell number change is 2.14%. Further, under setting [2], the AC50 is 0.82 µM [rising, full curve, poor fit]. Besides, the AC50 under setting [1] is 29.1 µM [falling, partial curve, poor fit].
As to `CCCN1C[C@H](CSC)C[C@@H]2c3cccc4[nH]cc(c34)C[C@H]21`, the cell number change was found to be 2.4%.
In the case of `Cc1nn(CC(=O)Nc2ccc(C(C)C)cc2)c(C)c1[N+](=O)[O-]`, the cell number change came to 2.34%. Further, the AC50 under setting [2] is 0.891 µM [rising, single point]. Moreover, the AC50 under setting [1] was 0.794 µM [rising, single point].
In the case of `Cc1ccc(N(C(=O)C2CCC(=O)N2)C2(C(=O)NC3CCCC3)CCCCC2)cc1` (stereo unspecified), the cell number change is -48.5%. Under setting [2], the AC50 was 3.26 µM [falling, full curve]. For the same compound, under setting [1], the AC50 is 23.1 µM [falling, partial curve].
Consider `Cc1[nH]c2ccccc2c1C(=O)C(C)OC(=O)C1CCC1` (stereo unspecified), for which the cell number change is -33.7%. Also, the AC50 under setting [2] is 18.4 µM [falling, single point]. Further, under setting [1], the AC50 was 0.366 µM [falling, single point].
Turning to `O=C(Nc1ccccc1)c1cccc(N2C(=O)C3C4CC(C(Br)C4Br)C3C2=O)c1` (stereo unspecified), the cell number change is -66.6%. In addition, the AC50 under setting [2] is 10 µM [falling, partial curve]. Further, the AC50 under setting [1] was 10 µM [falling, partial curve].
As to `COCCCn1c(C(=O)NCCN2CCOCC2)cc2c(=O)n3ccccc3nc21`, the AC50 under setting [1] was 4.11 µM [falling, full curve].
With `CCOC(=O)c1ccc2c(c1)nc(SCc1cn3ccsc3n1)n2CC`, the cell number change is -20.4%. Under setting [1], the AC50 is 16.4 µM [falling, single point].
Turning to `O=C(CCNC(=O)c1ccccc1Cl)NCCC1=CCCCC1`, the cell number change was 3.74%. In addition, under setting [1], the AC50 was 1.16 µM [falling, partial curve].
Consider `Cc1nc(-c2ccc(S(=O)(=O)Nc3ccc(S(N)(=O)=O)cc3)cc2)co1`, for which the cell number change was 1.32%.
As for `O=C(NCCCN1CCN(c2ccccc2F)CC1)C1CCN(S(=O)(=O)N2CCOCC2)CC1`, the cell number change is -43.6%. Besides, the AC50 under setting [2] is 0.92 µM [falling, full curve, poor fit]. The AC50 under setting [1] is 0.92 µM [falling, full curve].
As to `Cc1ccc(NC(=O)NCc2cccnc2)cc1C`, the cell number change is -6.94%.
For the compound `Cc1cc(C)n(C(=O)c2cc3c(s2)CCCC3)n1`, the cell number change worked out at 5.05%.
Take `CCNc1nc(NCC)n2c(SCC(=O)Nc3cccc(F)c3)nnc2n1`: the AC50 under setting [2] is 1.64 µM [rising, partial curve].
Take `N#CCCN(C(=O)COC(=O)COc1ccc(Cl)cc1)c1ccccc1`: the cell number change was -30.8%. Also, the AC50 under setting [1] is 4.61 µM [falling, partial curve, poor fit].
Consider `CC(=O)c1cccc(OCC(=O)Nc2cc(Cl)ccc2-n2cncn2)c1`, for which the cell number change was -3.5%. The AC50 under setting [2] is 6.51 µM [rising, single point].
Consider `CSC1=NCCN1C(=O)c1ccc(Br)o1`, for which the cell number change was found to be 5.16%. Also, the AC50 under setting [2] was 0.651 µM [rising, single point].
In the case of `CC(C)NCCOCCSc1ccc(Cl)cc1`, the AC50 under setting [1] is 6.51 µM [falling, single point].
Regarding `Cc1cc(C)c(NC(=O)Cc2ccc(-n3cccc3)cc2)c(C)c1`, the cell number change is -14.9%. Besides, the AC50 under setting [2] is 0.259 µM [rising, full curve, poor fit]. Under setting [1], the AC50 is 0.259 µM [rising, partial curve].
Take `COc1cc(OC)cc(C(=O)Nc2ccc(S(=O)(=O)Nc3ncccn3)cc2)c1`: the AC50 under setting [2] is 0.00517 µM [falling, full curve, poor fit].
In the case of `O=C(NCc1cccnc1)Nc1ccc(Cl)cc1Cl`, the cell number change amounted to 57.5%. For the same compound, under setting [2], the AC50 is 2.91 µM [rising, full curve].
As for `Cc1ccc(N=CC2=C(O)CC(C)(C)CC2=O)nc1`, the cell number change is -14.1%. Further, the AC50 under setting [1] was 1.64 µM [falling, partial curve].
Turning to `COC(=O)[C@H](C)[C@@H]1C[C@@]1(C)[C@@H](NC(=O)OCc1ccccc1)c1ccccc1`, the cell number change is -4.22%. Under setting [1], the AC50 was 4.61 µM [rising, partial curve].
Turning to `O=[N+]([O-])/C=C/c1cn(Cc2ccc(Cl)cc2)c2ccccc12`, the cell number change is -15.9%. Besides, the AC50 under setting [1] was 10.3 µM [falling, partial curve].
On to `O=C(Cn1nc(CNc2ccc(Cl)cc2)[n+]2c1CCCCC2)c1ccc(Cl)cc1`, for which the cell number change is -37%. Moreover, the AC50 under setting [2] was 29.1 µM [falling, single point]. The AC50 under setting [1] is 18.4 µM [falling, single point].
For `Cc1cc(-c2n[nH]c(=S)n2/N=C/c2cccc([N+](=O)[O-])c2)n[nH]1`, the cell number change worked out at 12.2%. The AC50 under setting [1] was 3.66 µM [falling, partial curve].
Consider `CCOC(=O)c1csc(NC(=O)c2ccc(S(=O)(=O)N3CCCC3)cc2)n1`, for which the cell number change worked out at 26%. Moreover, the AC50 under setting [2] was 6.51 µM [rising, single point]. The AC50 under setting [1] is 6.51 µM [rising, partial curve, poor fit].
With `COc1ccc(OC)c(NC(=O)CSc2nc3cccnc3n2C)c1`, the AC50 under setting [2] was 0.517 µM [rising, single point] and the AC50 under setting [1] is 0.58 µM [rising, single point].
As for `CCOC(=O)C1=C(O)C(=O)N(Cc2cccnc2)C1c1ccc(OC)cc1` (stereo unspecified), the cell number change is 30.4%. Besides, the AC50 under setting [1] is 22.4 µM [falling, single point].
Consider `CCc1ccc(NC(=O)COC(=O)/C=C/c2c(C)nn(C3CCS(=O)(=O)C3)c2Cl)cc1` (stereo unspecified), for which the cell number change is -42.6%. Under setting [2], the AC50 was 0.116 µM [falling, full curve, poor fit]. Also, under setting [1], the AC50 is 0.206 µM [falling, full curve].
For the compound `O=C1OC2(c3ccccc31)c1cc(I)c(O)c(I)c1Oc1c2cc(I)c(O)c1I`, the cell number change is -104%. For the same compound, the AC50 under setting [2] is 2.91 µM [falling, full curve]. Also, under setting [1], the AC50 was 3.26 µM [falling, full curve].
With `Cc1ccc(S(=O)c2ccc(NC(=O)C3CC3)cc2C#N)cc1` (stereo unspecified), the cell number change was -62.3%. In addition, under setting [2], the AC50 is 29.1 µM [falling, single point]. In addition, under setting [1], the AC50 was 29.1 µM [falling, single point].
Take `O=C(NCC(=O)N1CCC2(CC1)NCCc1[nH]cnc12)c1ccccc1F`: the cell number change was -11.6%. Under setting [1], the AC50 is 6.51 µM [falling, single point].
Regarding `COC(=O)C1=C(C)NC(=O)NC1c1ccccc1Cl` (stereo unspecified), the cell number change stood at 7.42%.
As to `Cc1cc(=O)oc2c(C)c(OC(C)C(=O)NCCCN3CCOCC3)ccc12` (stereo unspecified), the cell number change turned out to be 30.4%. Also, the AC50 under setting [2] is 32.6 µM [rising, single point].
Regarding `COc1ccc(CCNC(=O)c2ccc(Cl)cc2)cc1OC`, the cell number change is -37.9%.
For `Cc1cc(Cl)nc2ccc(Cc3ccc4nc(Cl)cc(C)c4c3)cc12`, the cell number change was determined as 37.6%. Also, the AC50 under setting [2] was 32.6 µM [rising, single point]. Under setting [1], the AC50 is 29.1 µM [rising, single point].
Consider `Cc1cccc(CNC(=O)CCn2ccc3cc(S(=O)(=O)N4CCCC4)ccc32)c1`, for which the cell number change was -7.22%. For the same compound, the AC50 under setting [1] is 29.1 µM [falling, single point].
For `CCOc1c(Cl)cc(CNC(C)(C)CC(C)(C)C)cc1OC`, the cell number change is -33.9%. The AC50 under setting [2] is 0.146 µM [falling, full curve].
In the case of `O=C(OCn1nnc2ccccc2c1=O)c1cn(-c2ccccc2)nc1-c1cccnc1`, the cell number change was -34.4%. Under setting [2], the AC50 was 0.231 µM [falling, full curve, poor fit]. The AC50 under setting [1] is 0.259 µM [rising, full curve, poor fit].
As to `CCN(CC)C1CC(=O)N(c2ccc(Br)cc2)C1=O` (stereo unspecified), the cell number change is -37.6%. The AC50 under setting [2] was 32.6 µM [falling, partial curve, poor fit]. Moreover, under setting [1], the AC50 was 13 µM [falling, partial curve].
Take `COc1ccc(C2N3CC4(C)CN2CC(C)(C3)C4)cc1OC` (stereo unspecified): the cell number change was 0.408%. In addition, the AC50 under setting [1] is 29.1 µM [falling, single point].
Turning to `CCn1nccc1C(=O)Nc1cccc(C)c1C`, the cell number change is 30.1%. For the same compound, the AC50 under setting [2] was 20.6 µM [rising, partial curve, poor fit]. The AC50 under setting [1] was 6.51 µM [rising, single point].
As for `COc1ccc(N2CCN(Cc3nc4ccccc4n3C)CC2)cc1`, the cell number change was -4.08%. Further, the AC50 under setting [2] is 0.146 µM [falling, full curve, poor fit]. Under setting [1], the AC50 is 0.146 µM [falling, full curve, poor fit].
Turning to `COc1ccc(/C=N/OCC(=O)Nc2nc3ccccc3s2)cc1`, the cell number change is -31.1%. The AC50 under setting [2] was 20.6 µM [falling, single point]. Besides, under setting [1], the AC50 was 16.4 µM [rising, single point].
In the case of `CC(=O)OC(C)(C)C#CCN1CCCC1`, under setting [1], the AC50 is 20.6 µM [falling, single point].
For `Cc1cc(NC(=O)C(C)C)ncc1NC(=O)c1ccccn1`, the cell number change was 7.25%. In addition, the AC50 under setting [2] was 2.06 µM [falling, partial curve].
